Measurements reported in PubChem BioAssay AID602196 (INSERM, 2012).
In all, the deposit lists about 23,000 reagents; shown is a random part of them. Of all reagents, 455 (2%) got an active call. 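Active includes both protection and sensitisation; some change values fall well beyond the stated -50 to +50 range.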 Further read-outs or replicates are left out here. Not stated in the record: the amount of reagent.

Test: 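Genes whose knock-down alters cisplatin killing of lung cancer cells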
Cell system: human A549 lung cancer cells
Knock-down reagent: siRNA pair against human genes
Timing: 48 h transfection before cisplatin; time from cisplatin to read-out not stated
Challenge: cisplatin at a dose killing half of control-siRNA cells; exact dose and duration not given
Detection: 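Shift in cisplatin death relative to control siRNA, from -50 (all cells die) to +50 (no cells die); siRNAs harmful on their own scored 0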
Reading the numbers: two-siRNA summed score (-2 to +2): higher = both siRNAs protect from cisplatin killing; -2 means both sensitise
Call rule: 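siRNAs harmful alone (LDH or WST-1) get 0; others get +1 for less and -1 for more cisplatin killing; genes are active when the two siRNAs give the same sign, summing to ±2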
Meaning of the calls: active = both siRNAs shift cisplatin killing the same way; inactive = no consistent shift, or siRNA harmful alone

{"Gene": "LOC441351", "two-siRNA summed score (-2 to +2)": 1, "outcome": "inactive"}
{"Gene": "SLC9A8", "two-siRNA summed score (-2 to +2)": 0, "outcome": "inactive"}
{"Gene": "COMT", "two-siRNA summed score (-2 to +2)": 0, "outcome": "inactive"}
{"Gene": "PLVAP", "two-siRNA summed score (-2 to +2)": 0, "outcome": "inactive"}
{"Gene": "LOC92482", "two-siRNA summed score (-2 to +2)": 0, "outcome": "inactive"}
{"Gene": "LOC442376", "two-siRNA summed score (-2 to +2)": 0, "outcome": "inactive"}
{"Gene": "FBXL15", "two-siRNA summed score (-2 to +2)": 0, "outcome": "inactive"}
{"Gene": "GPR153", "two-siRNA summed score (-2 to +2)": 1, "outcome": "inactive"}
{"Gene": "GLMN", "two-siRNA summed score (-2 to +2)": 0, "outcome": "inactive"}
{"Gene": "CD74", "two-siRNA summed score (-2 to +2)": 0, "outcome": "inactive"}
{"Gene": "CTH", "two-siRNA summed score (-2 to +2)": 0, "outcome": "inactive"}
{"Gene": "LOC389300 (retired record)", "two-siRNA summed score (-2 to +2)": 0, "outcome": "inactive"}

Records above whose target name begins with C or c (3):
{"Gene": "COMT", "two-siRNA summed score (-2 to +2)": 0, "outcome": "inactive"}
{"Gene": "CD74", "two-siRNA summed score (-2 to +2)": 0, "outcome": "inactive"}
{"Gene": "CTH", "two-siRNA summed score (-2 to +2)": 0, "outcome": "inactive"}
